Some results were stated once for a whole list of compounds, not compound by compound.
System: Astrocytes
Test: Luminex assay of proteins secreted by astrocytes after cytokine stimulation
Type: cell-based, human
Details: stimulation in basal medium for 24 hours; average of four lots
Protocol: FIGS. 8A-8J: Astrocytes from four lots were thawed and cultured for 7 days in Astro 3 media, before stimulation in basal medium for 24 hours. Supernatant was collected and assayed using a custom Luminex assay from R&D on the FLEXMAP 3D instrument, according to manufacturer's instructions. Each condition was run in duplicate, with the average of all four lots compared to the control (unstimulated) condition to calculate fold change. Error bars are +/−1 SEM. […] The combination of IFN-gamma with TNF-alpha produced the highest fold-change over control, with over 84-fold secretion of IL-1ra compared to control. IL-1ra binds to cell surface IL-1 receptors, blocking binding of pro-inflammatory IL-1alpha and IL-1beta. […] TNF-alpha combined with either IL-1alpha or IL-1beta increased IL-6 secretion by over 3300-fold compared to control. IL-6 attracts pro-inflammatory T cells and promotes demyelination. […] TNF-alpha combined with either IL-1alpha or IL-1beta increased IL-8 secretion by over 12,000-fold compared to control. IL-8/CXCL8 is secreted by astrocytes to attract pro-inflammatory immune cells after insults. This analyte also plays a role in recruitment and differentiation of oligodendrocyte precursor cells (OPCs) to promote remyelination. […] TNF-alpha alone, or combined with IL-1alpha, IL-1beta or IFN-gamma increased IL-10 secretion by over 1000-fold compared to control. IL-10 is secreted by astrocytes to reduce iNos activity and reduce astrogliosis. […] TNF-alpha alone, or combined with IL-1alpha, IL-1beta or IFN-gamma increased CCL5/RANTES secretion by over 2500-fold compared to control. CCL5/RANTES controls the movements of peripheral immune cells. […] TNF-alpha combined with IL-1alpha or IL-1beta increased CCL7 secretion by over 15,000-fold compared to control. CCL7 is important for astrocyte-microglia interactions and induces microglia activation. […] Stimulation with IL-1alpha or TNF-alpha alone increased CCL20 secretion by over 18-fold over unstimulated control. TNF-alpha combined with IL-1alpha, IL-1beta or IFN-gamma increased CCL20 secretion by over 100-fold compared to control. CCL20 is secreted by astrocytes in response to pro-inflammatory stimuli and attracts T-cells, B-cells and DCs. […] Stimulation with IL-1alpha increased CXCL1 secretion by 84-fold over unstimulated control. TNF-alpha combined with IL-1alpha or IL-1beta increased CXCL1 secretion by over 450-fold compared to control. CXCL1 is secreted by astrocytes to recruit neutrophils to the site of infection, and increases BBB permeability. […] CXCL2 activates CXCR2, found on oligodendrocytes and OPCs, which increases OPC proliferation and differentiation. […] CXCL5 is secreted by astrocytes in response to injury and activates microglia, resulting in decreased microglia phagocytosis and inhibition.
Astrocytes from four lots were thawed and cultured for 7 days in Astro 3 media, before stimulation in basal medium for 24 hours. Supernatant was collected and assayed using a custom Luminex assay from R&D on the FLEXMAP 3D instrument, according to manufacturer's instructions. […] The combination of IFN-gamma with TNF-alpha produced the highest fold-change over control, with over 84-fold secretion of IL-1ra compared to control. IL-1ra binds to cell surface IL-1 receptors, blocking binding of pro-inflammatory IL-1alpha and IL-1beta.

Row | Substance | CCL5/RANTES secretion, fold change over unstimulated control | CCL20 secretion, fold change over unstimulated control | CXCL1 secretion, fold change over unstimulated control | CXCL2 secretion, fold change over unstimulated control | CXCL5 secretion, fold change over unstimulated control | IL-10 secretion, fold change over unstimulated control
1 | TNF-alpha | over 2500 fold | over 18 fold | over 9 fold | over 51 fold | over 47 fold | over 1000 fold
2 | IL-1alpha: pro-inflammatory cytokine used to stimulate astrocytes |  | over 18 fold |  |  |  | 

Reference: patent US20240003871A1, “IPSC-DERIVED ASTROCYTES AND METHODS OF USE THEREOF” (FUJIFILM Cellular Dynamics, Inc., priority 2022, published 2024)
